Assay [1] concerns the target T1, OTUD5, endogenous (human (endogenous in 253J and UM-UC-14)) (UniProt Q96G74).
T1 sequence: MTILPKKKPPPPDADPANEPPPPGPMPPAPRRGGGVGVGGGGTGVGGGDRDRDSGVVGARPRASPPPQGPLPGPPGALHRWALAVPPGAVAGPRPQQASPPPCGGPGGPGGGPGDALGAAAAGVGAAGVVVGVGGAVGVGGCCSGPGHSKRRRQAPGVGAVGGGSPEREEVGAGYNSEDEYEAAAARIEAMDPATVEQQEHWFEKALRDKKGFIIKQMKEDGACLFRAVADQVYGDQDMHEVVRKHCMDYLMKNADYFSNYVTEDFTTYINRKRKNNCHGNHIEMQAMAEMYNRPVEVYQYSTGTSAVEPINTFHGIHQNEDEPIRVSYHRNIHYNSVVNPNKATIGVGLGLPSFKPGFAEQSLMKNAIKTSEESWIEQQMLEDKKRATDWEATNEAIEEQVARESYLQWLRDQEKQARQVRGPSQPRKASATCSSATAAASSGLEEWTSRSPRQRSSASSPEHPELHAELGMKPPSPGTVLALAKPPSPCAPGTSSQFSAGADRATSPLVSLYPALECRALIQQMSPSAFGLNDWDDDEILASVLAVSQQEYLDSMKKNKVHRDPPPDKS
Put plainly: co-IP; endogenous proteins in 253J and UM-UC-14 cells; IP with the antibody against OTUD5, Western blot with the antibody against RNF186. A general note: A western blot detects proteins with antibodies after separation by electrophoresis.

The next assay deals with T2, GST-OTUD5 (UniProt Q96G74).
T2 sequence: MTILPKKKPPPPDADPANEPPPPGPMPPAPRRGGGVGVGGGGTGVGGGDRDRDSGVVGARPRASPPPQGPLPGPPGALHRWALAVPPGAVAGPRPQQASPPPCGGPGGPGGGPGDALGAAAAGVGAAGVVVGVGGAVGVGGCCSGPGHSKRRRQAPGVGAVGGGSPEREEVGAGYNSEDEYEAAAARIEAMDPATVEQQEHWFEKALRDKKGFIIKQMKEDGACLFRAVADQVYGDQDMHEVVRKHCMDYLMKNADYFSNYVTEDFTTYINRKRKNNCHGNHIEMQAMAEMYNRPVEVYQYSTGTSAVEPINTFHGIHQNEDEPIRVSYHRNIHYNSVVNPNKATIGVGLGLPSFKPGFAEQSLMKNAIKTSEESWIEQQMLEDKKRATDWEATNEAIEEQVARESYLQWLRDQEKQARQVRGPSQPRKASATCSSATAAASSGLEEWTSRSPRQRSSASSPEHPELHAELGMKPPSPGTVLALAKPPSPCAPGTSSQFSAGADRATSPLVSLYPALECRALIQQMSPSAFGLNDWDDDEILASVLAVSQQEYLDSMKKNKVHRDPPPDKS
Put plainly: pull-down; GST pull-down with GST-OTUD5; bound HA-tagged protein detected by immunoblot with anti-HA; Coomassie blue staining of the purified proteins; only the target purified.

No constants are given. Whether binding was seen depends on the method and setting. In cells and extracts the contact can be indirect. Some binding calls cover weakened binding; strength is not graded here. For part of these data: Sequences can lack the tags named with a protein.

B1: RNF186, endogenous (enzyme, UniProt Q9NXI6 1-227)
chain: MACTKTLQQSQPISAGATTTTTAVAPAGGHSGSTECDLECLVCREPYSCPRLPKLLACQHAFCAICLKLLLCVQDNTWSITCPLCRKVTAVPGGLICSLRDHEAVVGQLAQPCTEVSLCPQGLVDPADLAAGHPSLVGEDGQDEVSANHVAARRLAAHLLLLALLIILIGPFIYPGVLRWVLTFIIALALLMSTLFCCLPSTRGSCWPSSRTLFCREQKHSHISSIA
Regarding B1, the binding entry in assay [1] is recorded as “binds”.

B2: HA-RNF186 (ring finger protein 186) (enzyme, UniProt Q9NXI6 1-227)
chain: MACTKTLQQSQPISAGATTTTTAVAPAGGHSGSTECDLECLVCREPYSCPRLPKLLACQHAFCAICLKLLLCVQDNTWSITCPLCRKVTAVPGGLICSLRDHEAVVGQLAQPCTEVSLCPQGLVDPADLAAGHPSLVGEDGQDEVSANHVAARRLAAHLLLLALLIILIGPFIYPGVLRWVLTFIIALALLMSTLFCCLPSTRGSCWPSSRTLFCREQKHSHISSIA
With B2, in the assay with GST-OTUD5, the binding result was “binds”.

B3: HA-sestrin2 (protein, UniProt P58004 1-480)
chain: MIVADSECRAELKDYLRFAPGGVGDSGPGEEQRESRARRGPRGPSAFIPVEEVLREGAESLEQHLGLEALMSSGRVDNLAVVMGLHPDYFTSFWRLHYLLLHTDGPLASSWRHYIAIMAAARHQCSYLVGSHMAEFLQTGGDPEWLLGLHRAPEKLRKLSEINKLLAHRPWLITKEHIQALLKTGEHTWSLAELIQALVLLTHCHSLSSFVFGCGILPEGDADGSPAPQAPTPPSEQSSPPSRDPLNNSGGFESARDVEALMERMQQLQESLLRDEGTSQEEMESRFELEKSESLLVTPSADILEPSPHPDMLCFVEDPTFGYEDFTRRGAQAPPTFRAQDYTWEDHGYSLIQRLYPEGGQLLDEKFQAAYSLTYNTIAMHSGVDTSVLRRAIWNYIHCVFGIRYDDYDYGEVNQLLERNLKVYIKTVACYPEKTTRRMYNLFWRHFRHSEKVHVNLLLLEARMQAALLYALRAITRYMT
Regarding B3, in the assay with GST-OTUD5, the binding result is listed as “no binding”.

The values above are taken from paper PMC9463452.
